# Source: patent publication US4342827A, “Production of enzymes” (Public Health Laboratory Service, Center for Applied …, priority 1978, dated 1982)
# Experiment: Blank: dihydroxyacetone without enzyme, reduction of NAD in different buffers and pH
# Details: 50 μl 0.5M, no enzyme
compound,measurement,setting,value
O=C(CO)CO [dihydroxyacetone],ΔOD340,"carbonate/bicarbonate buffer, pH 8",0
same,ΔOD340,"carbonate/bicarbonate buffer, pH 8.5",0.31
same,ΔOD340,"carbonate/bicarbonate buffer, pH 9",0.36
same,ΔOD340,"carbonate/bicarbonate buffer, pH 9.5",0.94
same,ΔOD340,"phosphate buffer, pH 8",0
same,ΔOD340,"phosphate buffer, pH 8.5",0.17
same,ΔOD340,"phosphate buffer, pH 9",0.34
same,ΔOD340,"phosphate buffer, pH 9.5",0.63
same,ΔOD340,"triethanolamine/HCl buffer, pH 8",0
same,ΔOD340,"triethanolamine/HCl buffer, pH 8.5",0.03
same,ΔOD340,"triethanolamine/HCl buffer, pH 9",0.21
same,ΔOD340,"triethanolamine/HCl buffer, pH 9.5",0.48
